{
  "sequences": {"note": "Amino acid sequences for entries named in this document (tags omitted). A change or cut given only in a name is not applied to a line headed by its entry.", "UniProt Q9M5P2": "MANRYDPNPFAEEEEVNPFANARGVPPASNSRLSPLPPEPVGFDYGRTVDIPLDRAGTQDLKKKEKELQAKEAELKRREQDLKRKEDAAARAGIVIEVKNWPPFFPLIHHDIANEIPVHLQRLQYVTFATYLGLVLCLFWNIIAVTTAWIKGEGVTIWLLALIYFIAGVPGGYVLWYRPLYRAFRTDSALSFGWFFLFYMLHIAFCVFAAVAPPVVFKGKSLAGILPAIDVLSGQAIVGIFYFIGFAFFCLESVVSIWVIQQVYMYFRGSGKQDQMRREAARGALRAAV", "UniProt Q9C6X2": "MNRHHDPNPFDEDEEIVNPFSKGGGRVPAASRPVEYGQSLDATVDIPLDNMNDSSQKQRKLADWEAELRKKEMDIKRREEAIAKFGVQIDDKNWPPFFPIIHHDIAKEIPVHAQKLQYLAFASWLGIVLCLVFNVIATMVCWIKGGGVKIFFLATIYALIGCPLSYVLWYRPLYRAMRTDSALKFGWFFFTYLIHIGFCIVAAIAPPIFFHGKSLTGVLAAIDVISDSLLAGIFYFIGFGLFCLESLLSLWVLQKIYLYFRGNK"},
  "source": "paper doi:10.1101/2025.07.03.662988",
  "molecules": {"B1": {"name": "PIP1;2-NubA (split-ubiquitin prey, pXNubA22-DEST) (protein, UniProt Q06611 1-286)", "chain": "MEGKEEDVRVGANKFPERQPIGTSAQSDKDYKEPPPAPLFEPGELASWSFWRAGIAEFIATFLFLYITVLTVMGVKRSPNMCASVGIQGIAWAFGGMIFALVYCTAGISGGHINPAVTFGLFLARKLSLTRAVYYIVMQCLGAICGAGVVKGFQPKQYQALGGGANTIAHGYTKGSGLGAEIIGTFVLVYTVFSATDAKRNARDSHVPILAPLPIGFAVFLVHLATIPITGTGINPARSLGAAIIFNKDNAWDDHWVFWVGPFIGAALAALYHVIVIRAIPFKSRS"}},
  "key": {"[1]": {"target": "T1, PIP2;7-Cub-PLV (split-ubiquitin bait, pMetYC-PIP2;7) (Arabidopsis thaliana) (UniProt P93004)", "T1 sequence": "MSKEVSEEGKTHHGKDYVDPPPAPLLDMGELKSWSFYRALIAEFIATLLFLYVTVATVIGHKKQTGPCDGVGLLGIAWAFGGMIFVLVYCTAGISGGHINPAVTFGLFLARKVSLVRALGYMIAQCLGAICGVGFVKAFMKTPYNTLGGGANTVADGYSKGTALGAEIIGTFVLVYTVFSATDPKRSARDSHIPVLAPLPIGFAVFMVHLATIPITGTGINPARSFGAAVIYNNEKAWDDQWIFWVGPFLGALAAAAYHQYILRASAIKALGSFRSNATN", "assay": "two-hybrid"}, "[2]": {"target": "T2, PIP2;1-Cub-PLV (split-ubiquitin bait, pMetYC-DEST) (Arabidopsis thaliana) (UniProt P43286)", "T2 sequence": "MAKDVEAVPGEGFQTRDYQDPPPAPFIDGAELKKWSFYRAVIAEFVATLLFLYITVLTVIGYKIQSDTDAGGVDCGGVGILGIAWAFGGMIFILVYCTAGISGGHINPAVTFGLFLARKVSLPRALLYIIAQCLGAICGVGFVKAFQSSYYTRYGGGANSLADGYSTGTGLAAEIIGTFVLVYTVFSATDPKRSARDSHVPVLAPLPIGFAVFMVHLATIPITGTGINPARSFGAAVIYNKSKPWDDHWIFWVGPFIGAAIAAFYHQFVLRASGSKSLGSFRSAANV", "assay": "two-hybrid"}, "[3]": {"target": "T3, PIP2;2-Cub-PLV (split-ubiquitin bait, pMetYC-DEST) (Arabidopsis thaliana) (UniProt P43287)", "T3 sequence": "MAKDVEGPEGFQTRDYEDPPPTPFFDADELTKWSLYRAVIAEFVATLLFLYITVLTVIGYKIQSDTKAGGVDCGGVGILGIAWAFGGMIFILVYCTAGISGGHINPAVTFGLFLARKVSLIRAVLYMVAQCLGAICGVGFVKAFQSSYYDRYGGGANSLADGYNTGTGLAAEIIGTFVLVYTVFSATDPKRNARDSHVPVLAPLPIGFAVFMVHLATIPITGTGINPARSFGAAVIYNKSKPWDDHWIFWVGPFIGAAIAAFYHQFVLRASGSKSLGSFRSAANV", "assay": "two-hybrid"}, "[4]": {"target": "T4, PIP2;6-Cub-PLV (split-ubiquitin bait, pMetYC-DEST) (Arabidopsis thaliana) (UniProt Q9ZV07)", "T4 sequence": "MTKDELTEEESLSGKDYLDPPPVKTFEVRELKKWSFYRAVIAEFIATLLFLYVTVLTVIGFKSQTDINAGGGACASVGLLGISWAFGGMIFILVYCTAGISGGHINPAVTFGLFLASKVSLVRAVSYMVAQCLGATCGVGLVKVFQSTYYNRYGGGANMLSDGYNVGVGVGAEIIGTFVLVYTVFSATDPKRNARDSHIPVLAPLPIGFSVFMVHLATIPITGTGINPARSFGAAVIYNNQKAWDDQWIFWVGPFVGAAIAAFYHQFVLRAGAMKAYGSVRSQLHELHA", "assay": "two-hybrid"}, "[5]": {"target": "SCAMP1-GFP (pSCAMP1::SCAMP1-eGFP) (Arabidopsis thaliana) (UniProt Q9M5P2)", "assay": "FRET or BRET"}, "[6]": {"target": "SCAMP5-Cub-PLV (split-ubiquitin bait, pMetYC-DEST) (Arabidopsis thaliana) (UniProt Q9C6X2)", "assay": "two-hybrid"}},
  "note": "Results are given in words; binding and its absence hold for the method and conditions named. Binding calls can cover weak binding; strength is not graded here. For part of these data: Binding seen in cells or lysates may run through a third protein.",
  "data": [
    {"molecule": "NubG-SCAMP5 (split-ubiquitin prey, pNX35-DEST) (from UniProt Q9C6X2)", "values": [
      {"measurement": "binding", "setting": "[1]", "result": "binds"},
      {"measurement": "binding", "setting": "[2]", "result": "binds"},
      {"measurement": "binding", "setting": "[3]", "result": "binds"},
      {"measurement": "binding", "setting": "[4]", "result": "binds"}
    ]},
    {"molecule": "SCAMP5-mCherry (from UniProt Q9C6X2)", "values": [
      {"measurement": "binding", "setting": "[5]", "result": "binds"}
    ]},
    {"molecule": "B1", "values": [
      {"measurement": "binding", "setting": "[6]", "result": "binds"}
    ]}
  ]
}
